# Measurements reported in PubChem BioAssay AID1053208 (Peter MacCallum Cancer Centre, 2014)
# Purpose: 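Genes whose silencing cuts survival of bone tumour cells only with doxorubicin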 (primary screen)
# System: mouse osteosarcoma cells, early-passage culture from an engineered mouse model of fibroblastic bone tumour
# Reagent: siRNA pool against mouse genes, 40 nM
# Duration: about 120 h (48 h before drug, then 72 h with drug)
# Treatment: doxorubicin 100 nM for 72 h, roughly 30-40% inhibitory dose
# Measured: 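Luminescent ATP signal taken as viability with or without 100 nM doxorubicin for 72 h; mean of two wells set against non-targeting siRNA and turned into robust z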
# Scale: viability z-score with doxorubicin: higher = more viable cells under doxorubicin; viability z-score without drug: higher = more viable cells with knock-down alone
# Hit rule: 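a pool counts as active when its viability z-score with doxorubicin is -2 or below and its z-score without drug lies between -2 and 2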
# The whole screen tested about 17,000 reagents; this is an unselected part. 788 of them (4.7%) count as active. 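Calls rest on z-score classes alone; an extra cut-off of viability at most 70% of control was not applied to them.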 The numbers tell different reagents against one gene apart. Further read-outs or replicates are left out here. No sequences are given here.
gene knocked down,pool no.,combined z-score class,viability z-score with doxorubicin,viability z-score without drug,Call
Irx5 (GeneID 54352),1,no change with or without drug,-0.9,1.52,inactive
Ubl3 (GeneID 24109),1,high cell count without drug only,-0.34,2.87,inactive
Slc4a9 (GeneID 240215),1,no change with or without drug,0.34,0.34,inactive
Slc36a2 (GeneID 246049),1,no change with or without drug,-1.12,-0.51,inactive
Tas1r2 (GeneID 83770),1,no change with or without drug,-1.57,0.17,inactive
Mpdz (GeneID 17475),1,low cell count with and without drug,-2.02,-2.53,inactive
Adgra1 (GeneID 52389),1,no change with or without drug,0,-1.85,inactive
Ndufa6 (GeneID 67130),1,low cell count without drug only,0.34,-2.53,inactive
Rapgef1 (GeneID 107746),1,no change with or without drug,0,1.01,inactive
Lrrc61 (GeneID 243371),1,no change with or without drug,1.8,0.51,inactive
Slc6a7 (GeneID 240332),1,no change with or without drug,-0.22,0.51,inactive
Ube2g1 (GeneID 67128),1,no change with or without drug,0.79,1.01,inactive
Cimip2c (GeneID 75434),1,high cell count without drug only,1.35,2.19,inactive
Chmp4b (GeneID 75608),1,low cell count with and without drug,-7.31,-4.22,inactive
Inhbe (GeneID 16326),1,no change with or without drug,-1.24,-1.18,inactive
Scyl2 (GeneID 213326),1,no change with or without drug,0,-0.51,inactive
Gcnt1 (GeneID 14537),1,no change with or without drug,-1.12,0.67,inactive
Fkbp6 (GeneID 94244),1,no change with or without drug,0.45,-0.51,inactive
Acad9 (GeneID 229211),1,no change with or without drug,0.9,0.17,inactive
Sh3glb1 (GeneID 54673),1,low cell count with doxorubicin only,-2.02,-1.18,active
Nans (GeneID 94181),1,high cell count with doxorubicin only,2.81,1.35,inactive
Muc15 (GeneID 269328),1,no change with or without drug,1.35,0.51,inactive
Eprs1 (GeneID 107508),1,no change with or without drug,-0.22,-1.85,inactive
Ints6l (GeneID 236790),1,no change with or without drug,0.45,0.17,inactive
Shox2 (GeneID 20429),1,no change with or without drug,0,0.51,inactive
Slc35b4 (GeneID 58246),1,no change with or without drug,1.8,1.18,inactive
Lca5 (GeneID 75782),1,high cell count without drug only,0.45,3.2,inactive
C1rl (GeneID 232371),1,high cell count with and without drug,2.25,2.53,inactive
Krt6b (GeneID 16688),1,no change with or without drug,0,0.51,inactive
Rab27a (GeneID 11891),1,no change with or without drug,-0.79,0.17,inactive
Vmn1r62 (GeneID 81016),1,no change with or without drug,-0.9,-0.17,inactive
Vmn1r62 (GeneID 81016),2,no change with or without drug,-1.01,-0.17,inactive
Or11h4 (GeneID 56858),1,no change with or without drug,-0.22,-0.67,inactive
Or2ak5 (GeneID 258494),1,low cell count with doxorubicin only,-2.25,-0.84,active
Siah1b (GeneID 20438),1,no change with or without drug,-0.22,0.51,inactive
Herc6 (GeneID 67138),1,low cell count without drug only,-0.45,-2.02,inactive
Zmat3 (GeneID 22401),1,no change with or without drug,-1.01,-0.67,inactive
Zdhhc17 (GeneID 320150),1,no change with or without drug,1.35,1.18,inactive
Krtap5-2 (GeneID 71623),1,high cell count without drug only,1.35,3.2,inactive
Rmc1 (GeneID 76482),1,no change with or without drug,0,0.34,inactive
Yju2b (GeneID 67736),1,high cell count without drug only,-0.11,2.87,inactive
Or2a7 (GeneID 18310),1,no change with or without drug,1.35,0.51,inactive
Zpld1 (GeneID 239852),1,low cell count with doxorubicin only,-2.02,-0.67,active
Timm29 (GeneID 69773),1,no change with or without drug,0.67,0.84,inactive
Plekhg3 (GeneID 263406),1,high cell count with and without drug,3.48,2.53,inactive
Hoxa10 (GeneID 15395),1,no change with or without drug,0.9,0.17,inactive
Tiam2 (GeneID 24001),1,low cell count with doxorubicin only,-3.04,-1.52,active
Tmem184c (GeneID 234463),1,no change with or without drug,-1.57,-0.84,inactive
Stub1 (GeneID 56424),1,no change with or without drug,1.12,1.18,inactive
Atp10d (GeneID 231287),1,no change with or without drug,0.79,-1.18,inactive
